Assay results: the supplement of paper PMC10849652
This is one part of the list.

The chains behind the UniProt entries cited, without tags or fusion partners. Where a name states a change or a piece, a line headed by the entry shows the natural chain unless it says otherwise.
UniProt Q9Y376: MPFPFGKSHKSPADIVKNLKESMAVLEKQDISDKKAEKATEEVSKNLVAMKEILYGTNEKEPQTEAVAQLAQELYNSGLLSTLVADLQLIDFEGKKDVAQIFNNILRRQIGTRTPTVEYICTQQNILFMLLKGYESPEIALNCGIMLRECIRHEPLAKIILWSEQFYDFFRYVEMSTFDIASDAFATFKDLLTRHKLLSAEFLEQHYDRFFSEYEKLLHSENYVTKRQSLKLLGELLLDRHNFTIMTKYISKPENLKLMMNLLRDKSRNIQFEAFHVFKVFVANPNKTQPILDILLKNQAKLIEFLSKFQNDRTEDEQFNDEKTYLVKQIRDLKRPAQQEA
UniProt Q5JPI3: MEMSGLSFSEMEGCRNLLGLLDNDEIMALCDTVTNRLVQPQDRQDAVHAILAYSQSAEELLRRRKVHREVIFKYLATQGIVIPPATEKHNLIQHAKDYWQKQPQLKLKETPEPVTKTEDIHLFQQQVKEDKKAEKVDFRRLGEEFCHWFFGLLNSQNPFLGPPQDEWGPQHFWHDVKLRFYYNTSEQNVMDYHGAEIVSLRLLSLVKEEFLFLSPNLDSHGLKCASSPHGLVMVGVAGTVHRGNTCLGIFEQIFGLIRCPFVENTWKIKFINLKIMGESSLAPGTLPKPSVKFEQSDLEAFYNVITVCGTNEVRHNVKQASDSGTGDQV
UniProt O43683: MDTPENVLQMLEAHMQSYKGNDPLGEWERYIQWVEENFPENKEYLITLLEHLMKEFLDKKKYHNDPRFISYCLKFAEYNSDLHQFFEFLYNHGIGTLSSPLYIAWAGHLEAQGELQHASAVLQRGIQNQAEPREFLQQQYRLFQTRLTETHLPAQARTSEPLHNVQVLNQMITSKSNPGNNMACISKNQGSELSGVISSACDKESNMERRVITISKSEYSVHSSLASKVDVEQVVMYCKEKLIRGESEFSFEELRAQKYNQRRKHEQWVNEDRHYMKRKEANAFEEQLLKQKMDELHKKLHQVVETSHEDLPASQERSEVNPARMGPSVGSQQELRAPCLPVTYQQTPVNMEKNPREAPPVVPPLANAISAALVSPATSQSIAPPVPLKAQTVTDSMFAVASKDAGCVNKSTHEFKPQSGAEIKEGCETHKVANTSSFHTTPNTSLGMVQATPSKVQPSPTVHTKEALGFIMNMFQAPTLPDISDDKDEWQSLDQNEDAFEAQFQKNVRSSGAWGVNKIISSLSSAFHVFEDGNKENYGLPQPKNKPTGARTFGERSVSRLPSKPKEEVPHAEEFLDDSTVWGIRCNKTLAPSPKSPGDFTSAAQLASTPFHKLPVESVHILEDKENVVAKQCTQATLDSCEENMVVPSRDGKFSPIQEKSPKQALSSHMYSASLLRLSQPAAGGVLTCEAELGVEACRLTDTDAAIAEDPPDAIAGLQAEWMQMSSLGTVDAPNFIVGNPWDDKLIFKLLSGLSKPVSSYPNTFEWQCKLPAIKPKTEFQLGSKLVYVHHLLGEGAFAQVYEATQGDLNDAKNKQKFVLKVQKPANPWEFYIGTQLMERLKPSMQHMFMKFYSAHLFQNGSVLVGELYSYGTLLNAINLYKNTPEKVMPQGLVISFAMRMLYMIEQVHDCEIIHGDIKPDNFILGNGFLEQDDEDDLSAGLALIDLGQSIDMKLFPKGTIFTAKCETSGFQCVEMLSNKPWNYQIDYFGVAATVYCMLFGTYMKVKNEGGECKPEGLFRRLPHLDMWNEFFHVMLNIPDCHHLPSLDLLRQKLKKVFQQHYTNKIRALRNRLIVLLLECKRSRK
UniProt P0C0L4: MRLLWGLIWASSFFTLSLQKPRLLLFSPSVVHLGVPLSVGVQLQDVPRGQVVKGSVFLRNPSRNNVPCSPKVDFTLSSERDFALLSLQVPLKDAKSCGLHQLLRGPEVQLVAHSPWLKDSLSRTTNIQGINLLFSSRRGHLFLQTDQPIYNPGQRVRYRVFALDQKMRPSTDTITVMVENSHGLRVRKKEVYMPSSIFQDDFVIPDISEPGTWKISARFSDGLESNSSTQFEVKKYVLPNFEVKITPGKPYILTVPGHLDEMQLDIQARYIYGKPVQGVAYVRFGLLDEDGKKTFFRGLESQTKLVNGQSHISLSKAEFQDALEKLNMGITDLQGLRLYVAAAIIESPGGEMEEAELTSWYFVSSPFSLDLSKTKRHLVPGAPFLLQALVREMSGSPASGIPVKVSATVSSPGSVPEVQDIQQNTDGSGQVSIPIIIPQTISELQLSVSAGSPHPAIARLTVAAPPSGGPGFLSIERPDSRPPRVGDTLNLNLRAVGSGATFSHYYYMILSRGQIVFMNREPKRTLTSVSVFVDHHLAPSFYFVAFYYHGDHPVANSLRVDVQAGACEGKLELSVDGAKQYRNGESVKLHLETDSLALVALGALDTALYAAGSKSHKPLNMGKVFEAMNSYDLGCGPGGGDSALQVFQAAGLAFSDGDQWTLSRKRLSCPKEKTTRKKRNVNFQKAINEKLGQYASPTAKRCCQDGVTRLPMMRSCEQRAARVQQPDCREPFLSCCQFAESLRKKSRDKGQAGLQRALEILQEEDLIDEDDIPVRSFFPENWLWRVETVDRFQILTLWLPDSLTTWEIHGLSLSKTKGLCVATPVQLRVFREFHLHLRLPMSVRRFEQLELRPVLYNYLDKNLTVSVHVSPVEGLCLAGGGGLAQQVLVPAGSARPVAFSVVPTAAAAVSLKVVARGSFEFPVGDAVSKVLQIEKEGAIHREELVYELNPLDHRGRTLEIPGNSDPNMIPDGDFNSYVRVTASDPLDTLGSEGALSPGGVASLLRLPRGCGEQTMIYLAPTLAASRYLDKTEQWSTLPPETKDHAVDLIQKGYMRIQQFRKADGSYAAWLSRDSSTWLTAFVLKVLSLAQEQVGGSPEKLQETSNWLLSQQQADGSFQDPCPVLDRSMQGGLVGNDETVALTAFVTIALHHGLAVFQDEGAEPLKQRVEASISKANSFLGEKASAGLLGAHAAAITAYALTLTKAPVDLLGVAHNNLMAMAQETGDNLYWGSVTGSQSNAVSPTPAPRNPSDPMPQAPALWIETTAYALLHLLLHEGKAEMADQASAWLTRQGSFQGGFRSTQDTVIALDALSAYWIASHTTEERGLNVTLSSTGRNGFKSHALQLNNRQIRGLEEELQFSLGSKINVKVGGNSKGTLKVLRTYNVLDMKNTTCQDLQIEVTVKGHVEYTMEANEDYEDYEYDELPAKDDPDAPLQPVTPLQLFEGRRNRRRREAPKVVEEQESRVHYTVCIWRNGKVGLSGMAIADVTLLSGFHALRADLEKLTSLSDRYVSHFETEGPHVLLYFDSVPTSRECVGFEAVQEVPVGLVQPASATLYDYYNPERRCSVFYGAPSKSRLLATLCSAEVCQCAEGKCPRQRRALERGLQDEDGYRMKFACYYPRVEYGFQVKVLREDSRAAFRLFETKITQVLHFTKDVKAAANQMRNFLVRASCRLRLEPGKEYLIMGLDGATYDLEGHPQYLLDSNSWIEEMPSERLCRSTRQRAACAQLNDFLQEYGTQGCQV
UniProt O00478: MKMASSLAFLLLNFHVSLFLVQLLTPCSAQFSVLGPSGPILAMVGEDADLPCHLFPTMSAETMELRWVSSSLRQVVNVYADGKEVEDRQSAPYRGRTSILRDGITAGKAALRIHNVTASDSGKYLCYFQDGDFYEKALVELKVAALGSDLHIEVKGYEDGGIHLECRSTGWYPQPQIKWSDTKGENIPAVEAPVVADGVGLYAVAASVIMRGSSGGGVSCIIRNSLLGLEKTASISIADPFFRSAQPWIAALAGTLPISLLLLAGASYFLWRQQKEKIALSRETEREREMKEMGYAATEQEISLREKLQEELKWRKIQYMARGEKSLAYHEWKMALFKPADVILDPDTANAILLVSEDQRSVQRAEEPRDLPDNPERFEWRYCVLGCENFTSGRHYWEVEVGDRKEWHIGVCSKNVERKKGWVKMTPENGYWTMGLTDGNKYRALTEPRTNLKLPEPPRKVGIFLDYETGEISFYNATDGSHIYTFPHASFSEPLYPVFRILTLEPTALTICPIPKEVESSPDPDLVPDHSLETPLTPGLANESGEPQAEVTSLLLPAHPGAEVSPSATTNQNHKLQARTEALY
UniProt Q9BXL7: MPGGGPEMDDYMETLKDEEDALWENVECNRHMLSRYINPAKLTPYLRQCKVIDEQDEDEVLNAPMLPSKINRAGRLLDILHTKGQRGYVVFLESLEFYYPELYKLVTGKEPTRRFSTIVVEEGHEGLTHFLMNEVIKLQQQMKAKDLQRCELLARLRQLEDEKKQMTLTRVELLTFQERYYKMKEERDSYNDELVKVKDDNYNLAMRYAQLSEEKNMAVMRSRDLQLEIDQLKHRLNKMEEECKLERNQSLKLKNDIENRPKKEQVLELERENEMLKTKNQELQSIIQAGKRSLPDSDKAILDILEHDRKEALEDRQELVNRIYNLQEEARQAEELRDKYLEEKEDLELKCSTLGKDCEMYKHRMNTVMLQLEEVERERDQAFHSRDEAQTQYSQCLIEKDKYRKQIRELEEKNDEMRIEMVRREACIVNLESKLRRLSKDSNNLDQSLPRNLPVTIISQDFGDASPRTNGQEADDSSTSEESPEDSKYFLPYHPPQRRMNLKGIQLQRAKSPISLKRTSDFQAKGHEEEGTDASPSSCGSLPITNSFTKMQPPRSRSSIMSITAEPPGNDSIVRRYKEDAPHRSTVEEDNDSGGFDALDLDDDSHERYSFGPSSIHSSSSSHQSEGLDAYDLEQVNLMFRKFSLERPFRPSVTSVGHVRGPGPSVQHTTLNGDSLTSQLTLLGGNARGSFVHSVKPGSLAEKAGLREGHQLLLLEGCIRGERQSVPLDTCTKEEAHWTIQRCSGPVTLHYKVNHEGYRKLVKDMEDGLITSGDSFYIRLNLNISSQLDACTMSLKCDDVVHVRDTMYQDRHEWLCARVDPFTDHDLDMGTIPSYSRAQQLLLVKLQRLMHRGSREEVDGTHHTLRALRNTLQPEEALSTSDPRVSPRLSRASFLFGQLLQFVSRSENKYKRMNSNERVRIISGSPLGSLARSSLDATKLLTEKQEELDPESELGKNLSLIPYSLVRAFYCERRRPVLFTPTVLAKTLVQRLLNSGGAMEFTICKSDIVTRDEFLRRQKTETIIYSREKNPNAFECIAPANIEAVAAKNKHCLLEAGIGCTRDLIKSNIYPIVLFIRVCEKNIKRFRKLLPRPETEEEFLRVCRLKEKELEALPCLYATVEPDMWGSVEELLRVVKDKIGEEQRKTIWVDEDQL
UniProt Q9H0W9: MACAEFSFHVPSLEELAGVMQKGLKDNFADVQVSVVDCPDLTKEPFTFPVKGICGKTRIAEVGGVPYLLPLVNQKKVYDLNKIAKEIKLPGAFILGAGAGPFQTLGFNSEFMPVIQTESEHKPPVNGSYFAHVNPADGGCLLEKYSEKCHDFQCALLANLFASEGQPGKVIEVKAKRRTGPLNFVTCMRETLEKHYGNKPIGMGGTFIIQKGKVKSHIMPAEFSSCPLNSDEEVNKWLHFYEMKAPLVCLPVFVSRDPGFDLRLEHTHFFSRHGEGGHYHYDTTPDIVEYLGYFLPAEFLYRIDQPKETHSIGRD
UniProt Q7Z4R8: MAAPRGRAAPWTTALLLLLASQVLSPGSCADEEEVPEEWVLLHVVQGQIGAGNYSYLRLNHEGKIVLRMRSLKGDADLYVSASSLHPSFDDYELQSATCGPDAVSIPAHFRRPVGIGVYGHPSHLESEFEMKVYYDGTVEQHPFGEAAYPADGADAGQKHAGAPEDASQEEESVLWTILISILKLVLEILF
UniProt Q3KRA6: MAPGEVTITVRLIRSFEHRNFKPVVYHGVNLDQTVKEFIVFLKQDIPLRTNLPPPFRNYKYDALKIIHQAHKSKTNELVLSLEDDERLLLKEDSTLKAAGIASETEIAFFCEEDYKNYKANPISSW
UniProt Q32NC0: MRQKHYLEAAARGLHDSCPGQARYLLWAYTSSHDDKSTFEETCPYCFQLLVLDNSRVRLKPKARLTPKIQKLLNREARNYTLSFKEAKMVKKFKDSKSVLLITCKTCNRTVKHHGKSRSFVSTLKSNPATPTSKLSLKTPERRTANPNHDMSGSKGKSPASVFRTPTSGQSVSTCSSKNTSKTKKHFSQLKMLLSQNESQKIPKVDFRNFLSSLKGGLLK
UniProt Q01518, whole entry, looked up: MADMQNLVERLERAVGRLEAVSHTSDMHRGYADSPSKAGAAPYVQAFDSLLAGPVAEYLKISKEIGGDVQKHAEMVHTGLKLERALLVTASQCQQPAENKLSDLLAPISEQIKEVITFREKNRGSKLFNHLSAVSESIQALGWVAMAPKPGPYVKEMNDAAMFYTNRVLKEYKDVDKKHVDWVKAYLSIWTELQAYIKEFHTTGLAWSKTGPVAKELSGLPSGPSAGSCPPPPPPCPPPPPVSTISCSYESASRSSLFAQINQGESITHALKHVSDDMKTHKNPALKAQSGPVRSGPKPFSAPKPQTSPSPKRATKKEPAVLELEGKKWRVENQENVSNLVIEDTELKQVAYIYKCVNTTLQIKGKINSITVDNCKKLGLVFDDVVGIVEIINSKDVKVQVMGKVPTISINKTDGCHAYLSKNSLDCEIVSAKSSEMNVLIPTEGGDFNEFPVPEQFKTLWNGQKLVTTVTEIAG

The targets below were run with CC1=C2C(=CC=C1)N=C(N(C2=O)C3=CC=CC=C3C)CN4C=NC5=C(N=CN=C54)N (assay: log2 fold change, soluble protein after heating vs DMSO (PISA); higher = thermal stabilisation; K562 lysate, 10 uM; active = over 0.2 and 3.5 SD of the protein, either way, in both replicates (recomputed)).
Method in brief: (§1)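 Dounce homogenisation of K562 pellets in PBS pH 7.4 with 1 mM MgCl2 produced a crude extract, used at 1 mg/mL protein. Exposure to 10 μM compound lasted 30 min, and aliquots were then heated for 3 min across 48°C-58°C, pooled and brought to 0.5% NP-40 at 4°C. The supernatant after 21,000xg for 90 min was quantified by TMTpro 16plex LC-MS/MS with channel sums equalised. Duplicate values are given as log-two fold change in thermal stability relative to solvent controls.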

| Target | log2 fold change |
| --- | --- |
| CAPZA1 (UniProt P52907) | inactive: -0.008 |
| CAMK2G isoform 8 (UniProt Q13555) | inactive: -0.053 |
| C15orf41 (UniProt Q9Y2V0) | inactive: 0.029 |
| CAB39 (UniProt Q9Y376) | inactive: -0.018 |
| CAPRIN1 (UniProt Q14444) | inactive: -0.021 |
| C3orf38 (UniProt Q5JPI3) | inactive: -0.019 |
| CALB1 (UniProt P05937) | inactive: -0.007 |
| C1orf50 (UniProt Q9BV19) | inactive: 0.019 |
| C20orf27 isoform 2 (UniProt Q9GZN8) | inactive: -0.033 |
| C1GALT1C1 (UniProt Q96EU7) | inactive: 0.025 |
| CALCOCO2 isoform 4 (UniProt Q13137) | inactive: -0.063 |
| CA13 (UniProt Q8N1Q1) | inactive: 0.024 |
| C2orf69 (UniProt Q8N8R5) | inactive: 0.02 |
| C9orf64 (UniProt Q5T6V5) | inactive: 0.032 |
| BUB1 (UniProt O43683) | inactive: 0.011 |
| CAMK2B (UniProt Q13554) | inactive: -0.032 |

| Target | log2 fold change |
| --- | --- |
| C12orf65 (UniProt Q9H3J6) | inactive: -0.097 |
| C4A (UniProt P0C0L4) | inactive: 0.068 |
| BUD23 isoform 3 (UniProt O43709) | inactive: 0.021 |
| CALU isoform 4 (UniProt O43852) | inactive: 0.014 |
| CAPN1 (UniProt P07384) | inactive: 0.014 |
| C9orf40 (UniProt Q8IXQ3) | inactive: -0.05 |
| C18orf25 (UniProt Q96B23) | inactive: 0.043 |
| BTRC (UniProt Q9Y297) | inactive: -0.003 |
| BUB3 (UniProt O43684) | inactive: 0.02 |
| BTN3A3 (UniProt O00478) | inactive: -0.003 |
| CARD11 (UniProt Q9BXL7) | inactive: 0 |
| C3 (UniProt P01024) | inactive: 0.132 |
| C11orf54 (UniProt Q9H0W9) | inactive: -0.028 |
| C17orf75 (UniProt Q9HAS0) | inactive: 0.019 |
| C19orf25 (UniProt Q9UFG5) | inactive: -0.124 |
| CAB39L (UniProt Q9H9S4) | inactive: 0.053 |

Each target was assayed with Cc1sc2c(c1C)C(c1ccc(Cl)cc1)=N[C@@H](CC(=O)OC(C)(C)C)c1nnc(C)n1-2 in the same assay as above.
Method in brief: as §1

| Target | log2 fold change |
| --- | --- |
| CAPZA1 (UniProt P52907) | inactive: -0.035 |
| C6orf120 (UniProt Q7Z4R8) | inactive: -0.131 |
| CAMK2G isoform 8 (UniProt Q13555) | inactive: -0.007 |
| C15orf41 (UniProt Q9Y2V0) | inactive: 0.084 |
| CAB39 (UniProt Q9Y376) | inactive: 0.007 |
| CAPRIN1 (UniProt Q14444) | inactive: 0.046 |
| C2orf76 (UniProt Q3KRA6) | inactive: 0.027 |
| C3orf38 (UniProt Q5JPI3) | inactive: 0.016 |
| CALB1 (UniProt P05937) | inactive: 0 |
| C1orf50 (UniProt Q9BV19) | inactive: 0.034 |
| C20orf27 isoform 2 (UniProt Q9GZN8) | inactive: 0.025 |
| C1GALT1C1 (UniProt Q96EU7) | inactive: 0.019 |
| CALCOCO2 isoform 4 (UniProt Q13137) | inactive: -0.006 |
| CA13 (UniProt Q8N1Q1) | inactive: 0 |
| C2orf69 (UniProt Q8N8R5) | inactive: -0.002 |
| C9orf64 (UniProt Q5T6V5) | inactive: -0.002 |
| C18orf21 (UniProt Q32NC0) | inactive: 0.158 |
| BUB1 (UniProt O43683) | inactive: -0.174 |
| CAMK2B (UniProt Q13554) | inactive: -0.056 |
| C12orf65 (UniProt Q9H3J6) | inactive: 0.052 |

| Target | log2 fold change |
| --- | --- |
| C4A (UniProt P0C0L4) | inactive: -0.031 |
| C12orf73 (UniProt Q69YU5) | inactive: 0.046 |
| BUD23 isoform 3 (UniProt O43709) | inactive: 0 |
| CALU isoform 4 (UniProt O43852) | inactive: 0.015 |
| CAPN1 (UniProt P07384) | inactive: 0.015 |
| C9orf40 (UniProt Q8IXQ3) | inactive: -0.007 |
| C18orf25 (UniProt Q96B23) | inactive: 0.017 |
| BUB3 (UniProt O43684) | inactive: 0.031 |
| CAP1 isoform 2 (UniProt Q01518) | inactive: 0.02 |
| BTN3A3 (UniProt O00478) | inactive: -0.12 |
| CARD11 (UniProt Q9BXL7) | inactive: -0.084 |
| C3 (UniProt P01024) | inactive: -0.035 |
| C11orf54 (UniProt Q9H0W9) | inactive: -0.024 |
| C17orf75 (UniProt Q9HAS0) | inactive: -0.002 |
| C19orf25 (UniProt Q9UFG5) | inactive: -0.061 |
| CAND1 (UniProt F5H6I6) | inactive: -0.076 |
| CAB39L (UniProt Q9H9S4) | inactive: -0.064 |
| C2CD2 (UniProt Q9Y426) | inactive: -0.105 |
| C11orf96 (UniProt Q7Z7L8) | inactive: 0.008 |
